The target of assay [1] is T1, BD-VQ29 (Arabidopsis) (UniProt Q9SZG3).
T1 sequence: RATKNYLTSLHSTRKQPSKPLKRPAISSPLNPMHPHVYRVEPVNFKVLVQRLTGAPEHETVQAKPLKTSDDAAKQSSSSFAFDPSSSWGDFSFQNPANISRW
Briefly: two-hybrid; directed test in yeast Y2HGold; bait in pGBKT7 (Gal4 DNA-binding domain), prey in pGADT7; growth on selective media lacking Leu/Trp/His/Ade and containing 10 mM 3-aminotriazole.

For assay [2], the target named is VQ12-cYFP / VQ12-nYFP (Arabidopsis) (UniProt O81005). Briefly: split reporter; BiFC with nYFP and cYFP fusions co-infiltrated by Agrobacterium EHA105 in N. benthamiana leaves; confocal microscopy 48 h after infiltration.
Assay [3] addresses C-terminal part of VQ29 (yeast two-hybrid) (Arabidopsis). Briefly: two-hybrid; directed test in yeast Y2HGold; bait in pGBKT7 (Gal4 DNA-binding domain), prey in pGADT7; growth on selective media lacking Leu/Trp/His/Ade and containing 10 mM 3-aminotriazole.
The target of assay [4] is C-terminal part of VQ12 (yeast two-hybrid) (Arabidopsis). The description is as above.
Assay [5] has as its target N-terminal part of VQ29 containing the VQ motif (yeast two-hybrid) (Arabidopsis). Described as above.
The target of assay [6] is VQ29 with the VQ motif mutated (LVQR to EDLE) (yeast two-hybrid) (Arabidopsis) (UniProt Q9SZG3). The description is as above.
Assay [7] concerns the target VQ12 with the VQ motif mutated (LVQR to EDLE) (yeast two-hybrid) (Arabidopsis). The description is as above.
Assay [8] concerns the target N-terminal part of VQ12 containing the VQ motif (yeast two-hybrid) (Arabidopsis). The assay is described as above.

Results are given in words; binding and its absence hold for the method and conditions named. For some assays here: Binding calls can cover weak binding; strength is not graded here. Where a sequence is shown, tags or fusion partners need not be part of it. For some assays here: Binding seen in cells or lysates may run through a third protein.

As for AD-VQ3 (from UniProt Q9LMP5), the binding result in assay [1] was “binds”.

Regarding AD-VQ6 (Arabidopsis), in assay [1], the binding result is listed as “binds”. The same measure, in the same setting: with AD-VQ12 (Arabidopsis) the entry was “binds”.

For the molecule AD-VQ26 (from UniProt Q9M1D4), the binding result in assay [1] is “binds”. Still for that read-out and setting: the same measure for AD-VQ30 (Arabidopsis): “binds weakly”. As to AD-VQ32 (from UniProt Q9FIP7), in assay [1], the binding result is “binds”. Regarding AD-VQ34 (Arabidopsis), the binding result in assay [1] is given as “binds”.

B1: VQ29-cYFP / VQ29-nYFP (protein, UniProt Q9SZG3 1-123)
chain: MEATSQQFMSQSYLNAQETTTRATKNYLTSLHSTRKQPSKPLKRPAISSPLNPMHPHVYRVEPVNFKVLVQRLTGAPEHETVQAKPLKTSDDAAKQSSSSFAFDPSSSWGDFSFQNPANISRW
For B1, in assay [2], the binding result is “binds”.

B2: AD-VQ29 (protein, UniProt Q9SZG3 1-123)
chain: MEATSQQFMSQSYLNAQETTTRATKNYLTSLHSTRKQPSKPLKRPAISSPLNPMHPHVYRVEPVNFKVLVQRLTGAPEHETVQAKPLKTSDDAAKQSSSSFAFDPSSSWGDFSFQNPANISRW
As to B2, the binding result is listed as “binds” in assay [3]; “binds” in assay [4]; “no binding” in assay [5]; “binds” in assay [6]; “binds” in assay [7]; “no binding” in assay [8].

(Values after PMC4585807.)
